In US10793840B2, “Identifying ligands for bacterial sensors” (William Marsh Rice University, priority 2015, dated 2020):
At least one structure is not confirmed: it was looked up by name or label, or the drawing left a doubt.

Tested on: TAZ/OmpR-CcaR system
Assay: Positive control TAZ/OmpR-CcaR system in the metabolite screen, transcription from PcpcG2-172
Assay type: cell-based
Conditions: E. coli, PcpcG2-172 output; panel of mammalian gut metabolites

Structure (SMILES): N[C@@H](CC(=O)O)C(=O)O [aspartate]
- response of TAZ/OmpR-CcaR positive control system: responding only to aspartate
